Values of other authors as cited in US20220193127A1, “IMMUNOTHERAPY FOR OPIOID ADDICTION” (Therapeutic Solutions International, Inc., priority 2020, published 2022).
At least one structure is not confirmed: it was looked up by name or label, or the drawing left a doubt.

Experiments:
[1] = test system: dentate gyrus of the hippocampus; settings: rat model of alcoholism

Row | SMILES | impairment of adult neurogenesis within the dentate gyrus [1] | development of neuropathic pain (microglial cells; in vivo) | microglial activation (microglial cells; neuropathic pain) | proinflammatory cytokines (microglial cells; neuropathic pain)
1 | O=c1c2ccccc2[se]n1-c1ccccc1 [ebselen] | completely prevented | – | – | –
2 | CN(C)c1ccc(O)c2c1C[C@H]1C[C@H]3[C@H](N(C)C)C(O)=C(C(N)=O)C(=O)[C@@]3(O)C(O)=C1C2=O [minocycline] | – | suppressing | decrease | inhibit
